Measurements published in patent US20160159929A1.
No constants are given. Whether binding was seen depends on the method and setting. Some entries that bind do so weakly or less than the wild type.

The chains behind the UniProt entries cited, without tags or fusion partners. Where a name states a change or a piece, a line headed by the entry shows the natural chain unless it says otherwise. A line that says so, or that is headed by a name, gives the form on record, which may keep a tag or linker.
human DLL4 (27-251)-Fc alanine substitution mutant at position 69 (valine) (Q9NR61, form named): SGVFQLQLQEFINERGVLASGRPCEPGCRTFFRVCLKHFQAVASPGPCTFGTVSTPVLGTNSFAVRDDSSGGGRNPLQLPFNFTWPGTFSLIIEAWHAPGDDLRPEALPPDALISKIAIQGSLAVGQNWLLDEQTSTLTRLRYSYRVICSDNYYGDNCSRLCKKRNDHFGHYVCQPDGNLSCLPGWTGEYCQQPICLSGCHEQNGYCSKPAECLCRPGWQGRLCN

Target: human DLL4 (27-251)-Fc alanine substitution mutant at position 69 (valine) (human) (UniProt Q9NR61)
Test: Western blot of mutant DLL4 (27-251)-Fc with MLCK2 antibody (1 ug/mL), HRP anti-human Fab

binding: binds
B1: MLCK-2 anti-DLL4 antibody (antibody, V domains shown)
VH: EVQLLESGGGLVQPGGSLRLSCAASGFTFSDYAMSWVRQAPGKCLEWVSWIYSGSGNKYYADSVKGRFTISRDNSKNTLYLQMNSLRAEDTAVYYCARADWPFDYWGQGTLVTVSS
VL: QSVLTQPPSASGTPGQRVTISCTGSSSNIGSNDVTWYQQLPGTAPKLLIYADSKRPSGVPDRFSGSKSGTSASLAISGLRSEDEADYYCGTWDYSLSAYVFGCGTKLTVL
